Measurements taken from patent US5859226.

What was measured:
[1] = system: RF-X (X-box binding transcription factor + nuclear extract); assay: competition with a labelled probe; details: competes with hot AX, protein in an extract, protein details: Raji cell nuclear extract
[2] = system: RF-X (X-box binding transcription factor + nuclear extract); assay: EMSA; details: protein in an extract; protein details: Raji cell nuclear extract; variant of DRA X-box probe (AX, extended X-box)

Row | Sequence | binding result ([1]; variant of DRA X-box probe (AX, extended X-box)) | binding result [2] | binding result ([1]; folded or branched DNA)
1 | CCCCTAGCAACAGATG (double strand) [16 bp X-box] | binds | no binding | –
2 | CTAGGGGTTTTCCCCTAGCAACAGATGTTTTCATCTGTTG [RF-X decoy (ligated dumbbell, 40-mer)] | – | – | binds
3 | CTAGGGGTTTTTCCCCTAGCAACAGATGTTTTTCATCTGTTG [RF-X decoy T5 (ligated)] | – | – | binds
4 | CTAGGGGTTTTCCCCTAGCAACAGATGTTTTCATCTGTTG [unligated RF-X decoy] | – | – | binds

Construct, isoform or probe ends are uncertain for at least one entry. At least one result comes from cells or an extract, where the contact may be indirect. For some assays here: Negatives hold for the conditions tested.
